# PubChem BioAssay AID1053208, Peter MacCallum Cancer Centre | 2014
# Screen: 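Genes whose silencing cuts survival of bone tumour cells only with doxorubicin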 (primary screen)
# Cell system: mouse osteosarcoma cells, early-passage culture from an engineered mouse model of fibroblastic bone tumour
# Reagent: siRNA pool against mouse genes, 40 nM
# Timing: about 120 h (48 h before drug, then 72 h with drug)
# Treatment: doxorubicin 100 nM for 72 h, roughly 30-40% inhibitory dose
# Detection: 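Viability read as ATP luminescence after 72 h of 100 nM doxorubicin or none, duplicate wells averaged, scaled to non-targeting siRNA, then expressed as robust z-scores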
# Scale: viability z-score with doxorubicin and doxorubicin viability vs non-targeting: higher = more viable cells under doxorubicin; viability z-score without drug: higher = more viable cells with knock-down alone; z-score of drug to no-drug ratio: higher = less drug sensitisation by knock-down
# Active means: 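a pool counts as active when its viability z-score with doxorubicin is -2 or below and its z-score without drug lies between -2 and 2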
# Here is a random part of about 17,000 reagents. Of all reagents, 788 (4.7%) are marked active. 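Calls rest on z-score classes alone; an extra cut-off of viability at most 70% of control was not applied to them.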
The opening 2 records as a preview:
combined z-score class,viability z-score with doxorubicin,viability z-score without drug,z-score of drug to no-drug ratio,doxorubicin viability vs non-targeting,outcome,gene symbol
no change with or without drug,-0.45,-1.85,1.01,0.9,inactive,Pfkfb4
no change with or without drug,0.56,-0.84,1.35,0.99,inactive,Tdpoz5

The listing, from the start:
combined z-score class,viability z-score with doxorubicin,viability z-score without drug,z-score of drug to no-drug ratio,doxorubicin viability vs non-targeting,outcome,gene symbol
no change with or without drug,-0.45,-1.85,1.01,0.9,inactive,Pfkfb4
no change with or without drug,0.56,-0.84,1.35,0.99,inactive,Tdpoz5
no change with or without drug,1.12,0.51,0.9,1.04,inactive,Slc35e4
no change with or without drug,0.67,1.18,0,1,inactive,Tnnt2
no change with or without drug,-0.45,-0.84,0.22,0.9,inactive,Tmem260
no change with or without drug,0.22,0.67,-0.11,0.96,inactive,Rcor2
no change with or without drug,-0.22,0.84,-0.67,0.92,inactive,Cstf2t
no change with or without drug,0.22,0.67,-0.11,0.96,inactive,Tcea1
no change with or without drug,0.45,-0.17,0.67,0.98,inactive,Ppp1r16b
low cell count with doxorubicin only,-2.02,-1.35,-1.24,0.76,active,Pabpc5
no change with or without drug,0.34,-0.17,0.56,0.97,inactive,Fyn
no change with or without drug,-1.12,0.84,-1.57,0.84,inactive,Nprl3
no change with or without drug,0.45,1.18,-0.22,0.98,inactive,Cdh23
no change with or without drug,0,0.34,-0.11,0.94,inactive,Golm2
no change with or without drug,1.24,0.67,0.9,1.05,inactive,Defb8
low cell count with doxorubicin only,-4.27,-0.17,-4.27,0.56,active,Tipin
no change with or without drug,-0.9,0.17,-0.9,0.86,inactive,Ltv1
no change with or without drug,-1.01,1.18,-1.69,0.85,inactive,Cldn6
no change with or without drug,-0.56,0.17,-0.56,0.89,inactive,Serac1
no change with or without drug,1.46,1.18,0.79,1.07,inactive,Calcoco1
